# Source: paper doi:10.1101/701425
# By UniProt entry, the sequences of proteins in these tests, tags left out.
# UniProt F4J8D3: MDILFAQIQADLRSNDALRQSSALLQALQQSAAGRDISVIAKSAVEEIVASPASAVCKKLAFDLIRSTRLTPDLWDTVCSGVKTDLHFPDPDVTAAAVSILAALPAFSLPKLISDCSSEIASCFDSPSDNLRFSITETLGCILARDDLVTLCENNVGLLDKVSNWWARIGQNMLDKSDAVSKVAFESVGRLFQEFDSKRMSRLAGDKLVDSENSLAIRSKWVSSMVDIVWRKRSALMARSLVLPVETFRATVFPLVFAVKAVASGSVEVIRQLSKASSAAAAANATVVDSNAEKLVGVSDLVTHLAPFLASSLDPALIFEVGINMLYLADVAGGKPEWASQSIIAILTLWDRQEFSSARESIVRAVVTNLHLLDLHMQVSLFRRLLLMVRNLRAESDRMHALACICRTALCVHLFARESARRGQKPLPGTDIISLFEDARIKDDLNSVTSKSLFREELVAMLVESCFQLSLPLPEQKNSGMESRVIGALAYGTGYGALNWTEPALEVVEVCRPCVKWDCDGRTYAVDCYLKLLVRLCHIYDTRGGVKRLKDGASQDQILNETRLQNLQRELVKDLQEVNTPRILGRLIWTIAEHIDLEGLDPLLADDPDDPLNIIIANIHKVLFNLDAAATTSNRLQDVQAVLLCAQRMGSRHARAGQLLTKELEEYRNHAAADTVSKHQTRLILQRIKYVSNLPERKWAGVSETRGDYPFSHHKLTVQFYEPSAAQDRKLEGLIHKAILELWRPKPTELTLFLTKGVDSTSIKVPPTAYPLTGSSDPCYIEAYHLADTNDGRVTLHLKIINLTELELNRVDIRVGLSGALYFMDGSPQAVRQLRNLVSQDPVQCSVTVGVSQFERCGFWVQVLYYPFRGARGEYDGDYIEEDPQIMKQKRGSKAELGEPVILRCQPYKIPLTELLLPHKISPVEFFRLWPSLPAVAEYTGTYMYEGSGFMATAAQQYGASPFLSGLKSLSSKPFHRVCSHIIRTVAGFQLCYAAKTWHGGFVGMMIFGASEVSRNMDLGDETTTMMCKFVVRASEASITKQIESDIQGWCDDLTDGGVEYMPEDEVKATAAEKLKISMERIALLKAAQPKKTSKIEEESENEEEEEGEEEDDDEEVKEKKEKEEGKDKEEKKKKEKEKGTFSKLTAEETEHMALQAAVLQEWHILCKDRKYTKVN
# These are yes or no findings as the source states them, for the method shown. In cells and extracts the contact can be indirect. A yes stands for co-enrichment or nearness to the bait. Other partners may have been found.
# B1: TOL6 (protein, UniProt O80910 1-671)
# chain: MASSSASATVAVDKATSDLLLGPDWTTNMEICDSVNSLHWQAKDVVKAVKKRLQHKSSRVQLLALTLLETLVKNCGDYLHHQVAEKNILGEMVKIVKKKADMQVRDKILVMVDSWQQAFGGPEGKYPQYYWAYDELRRSGVEFPRRSPDASPIITPPVSHPPLRQPQGGYGVPPAGYGVHQAGYGVPQAGYGIPQAGYGVPQAGYGIPQVGYGMPSGSSRRLDEAMATEVEGLSLSSIESMRDVMDLLGDMLQAVDPSDREAVKDEVIVDLVERCRSNQKKLMQMLTSTGDDELLGRGLDLNDSLQILLAKHDAIASGSPLPVQASGSPLSVQASKPADSSPKSSEAKDSSSIAGSSSPIPATVSTGKSPIDEEYEEEEDEFAQLARRHSKPPASVTTDPTSLESHNAASNALALALPDPPPPVNTTKEQDMIDLLSITLCTPSTPPAPSSQPSPPPPAGSDQNTHIYPQPQPRFDSYVAPWAQQQQPQQPQAQQGYSQHQQHQQQQGYSQPQHSQQQQGYSQLQQPQPQQGYSQSQPQAQVQMQPSTRPQNPYEYPPPPWASTSANAYYTPRANASASYTDTSALAGRSLQQSNSFPTRAGDPQATSTASNSGVSVGQKPFVPSYRLFEDLDVFGSADGKHNKPANSSNGSQNLSGSQTQQSMIGGRKMI
# B2: Secretory Carrier Membrane Protein 5 (protein, UniProt Q9SXA5 1-291)
# chain: MGGRYDRNTFDEQDEVNPFANPGSVPAASNSRLSPLPPEPAGFGYGRTVDIPLDRPGSGAQDLKKKEKELQAKEADLRRREQDLKRKQDAAARAGIVIEAKNWPTFFPLIHHDIANEILVRLQRLQYIAFATYLGLVLALFWNIIAVTTAWIKGEGVTIWLLAVIYFISGVPGGYVLWYRPLYRAFRSDSAFNFGWFFLFYMLHILFCLFAAVAPPIVFKGKSLAGILPAIDVLSAQALVGIFYFIGFGLFCLESVVSIWVIQQVYMYFRGSGKADDMRRDAARGAMRAAI
# B3: TOL9 (protein, UniProt Q8L860 1-675)
# chain: MVNAMVERATSEMLIGPDWAMNLEICDMLNSDPAQAKDVVKGIKKRIGSRNPKAQLLALTLLETIVKNCGDMVHMHVAEKGVIHEMVRIVKKKPDFHVKEKILVLIDTWQEAFGGPRARYPQYYAGYQELLRAGAVFPQRSERSAPVFTPPQTQPLTSYPPNLRNAGPGNDVPEPSAEPEFPTLSLSEIQNAKGIMDVLAEMLSALEPGNKEDLKQEVMVDLVEQCRTYKQRVVHLVNSTSDESLLCQGLALNDDLQRVLTNYEAIASGLPGTSSQIEKPKSETGKSLVDVDGPLIDTGDSSNQANGATSSSGNGVLNQLALPAPPVTNGSANSKIDLLSGDDLALVPVGPPQPASPVASDQNALALIDMFSDNTNNPSPATAPSGNPAQNIPLNPQGHQQPNSQAGEAGLQQSNGFAPQVGYSQFEQPSYGQGVSSPWSSQPAQQPVQPSYGAQDSTAFPPPPWEAQLQDYSPSAESGSPFSPGMHPTQTAFTHAQPVNNNNPYPQIPQTGPPVNNNSPYAQMPQTGQAVANISPYPQIPQNGVYMPNQPNQALGSGYQPQQQQQQQMMMAQYYAQQQQLQQQQQQQAYGNQMGGYGYGYNQQQQGSSPYLDQQMYGLSMRDQTSHQVASSSSTTSYLPPMKPKNKPEDKLFGDLVDISKFKPTKPTSGRAGTM
# Target: TPLATE-linkerTurboID (A. thaliana) (UniProt F4J8D3)
# Assay: proximity labelling
row,binding,Binder
1,binds,B1
2,binds,B2
3,binds,B3
